From PubChem BioAssay AID1347423 (Functional Genomics Laboratory (NCATS/FGL), 2020)
Among all 52,000 sequences or so, about 210 (0.4%) were called active.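 How the source made its calls: active means gene whose silencing raises cell survival under the drug, median off-target-corrected z-score across its silencing RNAs 2 or more; inactive means the rest.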 This is one part of the list.

Experiment: Resistance to Poly (ADP-Ribose) Polymerase inhibitor: Gene Identification via Genome-wide siRNA Screen
Settings: mouse BRCA2 R2336H ES cells, olaparib, CellTiter-Glo viability; hits give high values
How it was run: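 Genome-wide siRNA screen (3 siRNAs/gene, 20 nM) in mouse ES cells carrying hypomorphic BRCA2 R2336H; olaparib 500 nM added 48 h post-transfection, CellTiter-Glo viability 72 h later. Normalized to plate-median negative control; MAD z-scores, gene median, seed-adjusted.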

Row | Sequence | z-score
1 | GGACUCACAGAAAUUUCCATT against Slc36a1 | inactive: 1.38
2 | CCAGUGAUCAGUUUUAACGTT against Adamts20 | inactive: -0.0673
3 | GGAACCUAUCAUGAUGAAATT against Pter | inactive: -0.224
4 | GGGUCAUUGGUAGCAACGATT against Oas1g | inactive: -0.983
5 | CCAAUUUCCUUUCAGACUGTT against Cxxc4 | inactive: -0.284
6 | GGAGAAGAUAGAAGCUGAGTT against Rad23a | inactive: -0.0924
7 | CCUCAAGUGCGAAAACGUGTT against Sstk | inactive: 0.645
8 | GUUCCAUAUGGAGCUUGUCTT against Olfr401 | inactive: -3.03
9 | GCCUGUUAAUAUGCUGUAATT against Gpr83 | inactive: -0.354
10 | GCAUGCUUCAAGCCCUAGATT against Evc2 | inactive: -1.44
11 | GGUGCAAUCAGCUUUCCACTT against Olfr1336 | inactive: -0.233
12 | GGUUUACCAGGCACUGCUCTT against Atp2b2 | inactive: 1.54
13 | GAGUUCAUCAGAGUGUAGCTT against Ndufs7 | inactive: 0.225
14 | GGUCCAUACACCUGCUCUGTT against 3732419F12 | inactive: 0.992
15 | GGAGAAACAGUAAAGAAGATT against Pcbp3 | inactive: -0.00301
16 | GGGAUACCAUGGGAAUAGUTT against Vps52 | inactive: 0.468
17 | GGAGAAGUGUUAUCUAUGUTT against Rxrip110 | inactive: -0.225
18 | GCGAGUUUUUGGAUGGUAGTT against Slc4a3 | inactive: 0.498
19 | GGACUCUUACGCCUCAUCATT against Zfp422-rs1 | inactive: 0.846
20 | GUACCACGGAUCUCUUCAUTT against Galr3 | inactive: 0.452
21 | GCCUCACAUUGUAGGAAUCTT against Sitpec | inactive: 0.292
22 | GGAAACUUCCCUUCCUAACTT against Snrp1c | inactive: -2.28

Part of the list above, as tab-separated lines:
Row	Sequence	z-score
1	GGACUCACAGAAAUUUCCATT against Slc36a1	inactive: 1.38
2	CCAGUGAUCAGUUUUAACGTT against Adamts20	inactive: -0.0673
3	GGAACCUAUCAUGAUGAAATT against Pter	inactive: -0.224
4	GGGUCAUUGGUAGCAACGATT against Oas1g	inactive: -0.983

Continued.

Row | Sequence | z-score
23 | GCAAACUAUAGGUGCGUUGTT against 2600005O03Rik | inactive: 0.341
24 | CCAAUUAGCCCAAAGAAACTT against Sec14l2 | inactive: -0.972
25 | CGCUCAGAAGUUGUAGGUGTT against Ors16 | inactive: 0.74
26 | GGUCUAAUACUCAAUAGACTT against C030003D03Rik | inactive: 0.152
27 | GGCUUUAAUUGUGAGAUGCTT against Il1rl1 | inactive: -0.0486
28 | GGUGUUCCUGCUCAUAUGUTT against 5730461K03Rik | inactive: 0.0624
29 | GCUGAUGCUCCAUUGAAUGTT against 4930432K09Rik | inactive: 1.3
30 | GGAAUCACUCAAAGCUUAATT against Dst | inactive: 0.663
31 | GGAAGAGAAAGACCUGAGATT against Glra1 | inactive: -0.8
32 | GGAAGAAAAAUACCAGAAATT against Ubxd1 | inactive: -0.661
33 | GGACAGAUAGUGAAAGAUATT against C130036G08 | inactive: -1.81
34 | GGAUUGGCUCAAAGAUAUATT against Prss16 | inactive: 0.301
35 | GGAAAAUCCAUCUGGCCGATT against Myoc | inactive: 0.0506
36 | GCGAUGCUGCGUUCUGUUUTT against H1fx | inactive: -0.532
37 | GCUUACCAGAUUGUAUGUATT against Mrgpra1 | inactive: -0.242
38 | CCUAUUCCAACAAUUGGUUTT against Trim23 | inactive: 0.205
39 | GGUGUUUCAGGUGGACUAUTT against 2810039F03Rik | inactive: -2.37
40 | GUGAUGAUUGAGAGAAUGATT against Pla2g2e | inactive: -0.743
41 | GCUCUCAUACACGGUGGAATT against Ros1 | inactive: -1.41
42 | GCAAUUUGAGCAGUAUGUATT against 5730453I16Rik | inactive: 0.373
43 | GGUGGACACUCUUGACCUATT against Zfp235 | inactive: 0.772
44 | GGUCUAGCUCCAAUUGGAUTT against AI842396 | inactive: -0.428

Row | Sequence | z-score
45 | GGAGAGAAGUGCUACAUCATT against Lect1 | inactive: 1.54
46 | GGGUCAUUAAUGAUGGGCCTT against Si | inactive: -0.304
47 | GGUGUUCACACUCUUUUCUTT against Laptm4b | inactive: -0.158
48 | GGCCUCCUUUGAUCAUGCGTT against Zfp219 | inactive: 0.539
49 | GCCAUUGUCACAGUCUGAATT against Bhc80 | inactive: -2.24
50 | GGUAGAAUGGUUUUGAAGATT against Rnf130 | inactive: 1.66
51 | GGACCAAGGAGCAUUGAAATT against Fkbp7 | inactive: -0.581
52 | GCCCUAUAACAACCUCAAGTT against Cdk10 | inactive: -0.464
53 | GCAUGAGACUGUGAACCAGTT against Efnb1 | inactive: -0.723
54 | CCUCAUCCUUAGUUGUUUUTT against Tg737Rpw | inactive: 0.345
55 | CGAAUUUACUUCAGACUUCTT against Aim1 | inactive: -0.143
56 | GCAUCGAAGAGUUCAGAAUTT against C6.1AL | inactive: 0.156
57 | GCCAUGCACUAACUUGAAUTT against Adamts4 | inactive: 2.24
58 | GGAUGUGAAGAGCAAUCAGTT against 1700012G19Rik | inactive: 1.57
59 | GGGCUUUAUGCAGACCUACTT against Apoc4 | inactive: 0.481
60 | GCUCCUAGUGUUUUUGUGGTT against Arbp | inactive: 0.692
61 | GCAUAUGAGAUAGUUAACATT against 2210023G05Rik | inactive: 1.01
62 | GGCUAACUUUAGUGAGGUATT against 3110070M22Rik | inactive: -0.403
63 | CCGUGUGCAUUUACGGGCATT against Cndp2 | inactive: -0.489
64 | CCAAGUUAGUGGAUGAAUGTT against C730031G17 | inactive: 1.35
65 | GGAGCAAGCACCUAUACUCTT against 1700029M20Rik | inactive: -1.28
66 | CCUCAAAAUCCUACAUCUUTT against LOC446210 | inactive: 0.863
